According to the supplement of paper PMC12819154, “High-throughput peptide-centric local stability assay extends protein–ligand identification to membrane proteins, tissues and bacteria” (Nature Structural & Molecular Biology, 2025):
This is one part of the list. Most entries show no effect beyond the scatter of the controls.

Amino acid sequences for entries named in this document (tags omitted). A change or cut given only in a name is not applied to a line headed by its entry.
UniProt Q99J93: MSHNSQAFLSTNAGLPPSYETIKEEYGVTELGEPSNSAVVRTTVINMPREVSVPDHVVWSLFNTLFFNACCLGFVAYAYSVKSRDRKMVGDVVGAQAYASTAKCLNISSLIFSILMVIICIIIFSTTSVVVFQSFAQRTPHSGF
UniProt Q924T2, whole entry: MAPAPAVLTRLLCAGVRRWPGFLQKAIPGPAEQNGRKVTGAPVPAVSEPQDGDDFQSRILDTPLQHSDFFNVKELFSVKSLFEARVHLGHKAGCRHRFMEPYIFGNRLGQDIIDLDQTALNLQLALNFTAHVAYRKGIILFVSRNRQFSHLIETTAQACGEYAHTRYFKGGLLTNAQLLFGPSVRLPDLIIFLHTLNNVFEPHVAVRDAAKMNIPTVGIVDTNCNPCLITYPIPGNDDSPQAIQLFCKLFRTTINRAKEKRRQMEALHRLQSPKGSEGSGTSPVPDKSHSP
UniProt Q99J83: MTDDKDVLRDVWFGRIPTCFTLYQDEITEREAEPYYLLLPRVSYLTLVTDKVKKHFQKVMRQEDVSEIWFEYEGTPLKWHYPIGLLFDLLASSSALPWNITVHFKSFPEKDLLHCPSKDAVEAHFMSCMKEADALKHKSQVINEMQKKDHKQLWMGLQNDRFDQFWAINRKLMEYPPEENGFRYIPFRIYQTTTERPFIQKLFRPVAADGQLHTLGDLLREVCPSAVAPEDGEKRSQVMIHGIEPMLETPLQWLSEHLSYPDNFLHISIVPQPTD
UniProt Q99KR3: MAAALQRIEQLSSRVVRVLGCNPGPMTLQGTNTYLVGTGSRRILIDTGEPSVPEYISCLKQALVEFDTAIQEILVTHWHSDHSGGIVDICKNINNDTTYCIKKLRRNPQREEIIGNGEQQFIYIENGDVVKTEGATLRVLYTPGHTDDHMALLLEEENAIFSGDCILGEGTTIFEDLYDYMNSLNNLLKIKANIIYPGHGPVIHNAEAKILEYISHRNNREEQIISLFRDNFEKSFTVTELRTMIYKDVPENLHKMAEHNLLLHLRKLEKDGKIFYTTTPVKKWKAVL
UniProt Q924W7: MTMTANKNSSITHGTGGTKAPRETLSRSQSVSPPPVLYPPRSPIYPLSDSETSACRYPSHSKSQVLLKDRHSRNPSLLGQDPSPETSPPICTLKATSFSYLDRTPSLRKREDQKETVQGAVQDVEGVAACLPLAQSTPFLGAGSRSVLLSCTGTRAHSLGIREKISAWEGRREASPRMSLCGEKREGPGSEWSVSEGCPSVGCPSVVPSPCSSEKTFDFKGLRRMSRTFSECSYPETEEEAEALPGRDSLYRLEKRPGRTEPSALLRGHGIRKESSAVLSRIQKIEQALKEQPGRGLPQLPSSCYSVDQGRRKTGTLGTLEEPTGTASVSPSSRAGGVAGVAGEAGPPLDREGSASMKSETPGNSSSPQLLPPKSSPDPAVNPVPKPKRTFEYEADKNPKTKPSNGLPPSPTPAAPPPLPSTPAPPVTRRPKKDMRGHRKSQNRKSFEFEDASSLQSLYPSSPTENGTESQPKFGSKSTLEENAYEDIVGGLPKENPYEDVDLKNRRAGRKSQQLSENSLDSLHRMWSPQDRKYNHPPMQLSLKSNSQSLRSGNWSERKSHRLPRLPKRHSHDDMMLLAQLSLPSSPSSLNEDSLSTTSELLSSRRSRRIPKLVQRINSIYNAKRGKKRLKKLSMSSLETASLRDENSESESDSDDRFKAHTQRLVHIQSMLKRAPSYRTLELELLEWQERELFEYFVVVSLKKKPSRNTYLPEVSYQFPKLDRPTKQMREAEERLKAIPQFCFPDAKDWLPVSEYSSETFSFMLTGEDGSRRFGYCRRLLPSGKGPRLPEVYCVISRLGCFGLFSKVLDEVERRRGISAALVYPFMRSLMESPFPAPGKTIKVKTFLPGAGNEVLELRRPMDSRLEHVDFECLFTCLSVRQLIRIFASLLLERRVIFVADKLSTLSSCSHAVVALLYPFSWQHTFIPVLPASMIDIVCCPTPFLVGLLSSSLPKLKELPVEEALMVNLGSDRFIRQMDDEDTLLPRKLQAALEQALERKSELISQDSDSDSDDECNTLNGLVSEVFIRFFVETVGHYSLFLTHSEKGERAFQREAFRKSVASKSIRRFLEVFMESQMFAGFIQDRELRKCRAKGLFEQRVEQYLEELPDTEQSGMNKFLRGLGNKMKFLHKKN
UniProt Q925N2: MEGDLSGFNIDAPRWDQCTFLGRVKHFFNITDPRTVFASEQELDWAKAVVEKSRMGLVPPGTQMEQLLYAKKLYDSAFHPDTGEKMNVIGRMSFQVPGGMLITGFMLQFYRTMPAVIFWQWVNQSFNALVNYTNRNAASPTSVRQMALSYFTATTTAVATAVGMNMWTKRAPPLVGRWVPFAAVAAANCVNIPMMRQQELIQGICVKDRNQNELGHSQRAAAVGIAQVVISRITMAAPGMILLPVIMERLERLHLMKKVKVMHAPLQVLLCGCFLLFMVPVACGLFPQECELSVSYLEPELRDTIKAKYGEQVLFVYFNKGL
UniProt Q923D4: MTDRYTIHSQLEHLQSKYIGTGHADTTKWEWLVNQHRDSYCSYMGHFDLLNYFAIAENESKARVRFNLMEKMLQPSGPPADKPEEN
UniProt Q922R5: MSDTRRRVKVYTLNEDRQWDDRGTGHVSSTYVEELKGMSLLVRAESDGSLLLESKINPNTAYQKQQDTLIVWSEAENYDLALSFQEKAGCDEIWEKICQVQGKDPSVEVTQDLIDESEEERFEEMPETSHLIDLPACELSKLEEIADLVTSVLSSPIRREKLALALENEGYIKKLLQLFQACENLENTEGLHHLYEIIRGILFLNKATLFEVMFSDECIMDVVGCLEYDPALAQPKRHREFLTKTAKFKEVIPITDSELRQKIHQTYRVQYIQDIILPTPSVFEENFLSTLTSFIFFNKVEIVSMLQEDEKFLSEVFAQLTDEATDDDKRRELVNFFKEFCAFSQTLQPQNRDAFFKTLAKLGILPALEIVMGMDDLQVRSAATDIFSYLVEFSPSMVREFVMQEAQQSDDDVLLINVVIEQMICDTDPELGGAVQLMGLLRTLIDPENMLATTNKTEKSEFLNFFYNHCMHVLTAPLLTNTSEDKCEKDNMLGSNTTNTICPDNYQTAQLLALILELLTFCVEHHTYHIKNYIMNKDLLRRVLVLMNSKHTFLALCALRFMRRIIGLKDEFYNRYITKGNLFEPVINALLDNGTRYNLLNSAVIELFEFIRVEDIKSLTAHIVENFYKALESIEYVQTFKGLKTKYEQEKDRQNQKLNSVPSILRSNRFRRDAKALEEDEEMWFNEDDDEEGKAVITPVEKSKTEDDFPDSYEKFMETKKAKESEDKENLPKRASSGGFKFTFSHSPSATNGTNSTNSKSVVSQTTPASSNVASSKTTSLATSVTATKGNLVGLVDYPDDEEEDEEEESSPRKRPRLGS
UniProt Q99K28: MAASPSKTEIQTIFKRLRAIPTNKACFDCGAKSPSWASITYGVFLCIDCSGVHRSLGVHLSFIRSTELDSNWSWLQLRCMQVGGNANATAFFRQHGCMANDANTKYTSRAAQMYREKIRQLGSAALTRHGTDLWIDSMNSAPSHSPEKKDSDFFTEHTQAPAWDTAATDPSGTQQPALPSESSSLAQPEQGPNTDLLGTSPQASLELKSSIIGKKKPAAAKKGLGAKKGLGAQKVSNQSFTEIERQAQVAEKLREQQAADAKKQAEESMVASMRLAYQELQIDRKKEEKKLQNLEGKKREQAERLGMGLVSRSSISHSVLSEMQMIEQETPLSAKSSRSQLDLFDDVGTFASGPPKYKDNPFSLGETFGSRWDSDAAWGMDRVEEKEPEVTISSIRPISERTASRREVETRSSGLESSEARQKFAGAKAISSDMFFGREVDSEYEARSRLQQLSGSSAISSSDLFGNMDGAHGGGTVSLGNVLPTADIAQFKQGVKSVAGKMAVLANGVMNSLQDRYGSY
UniProt Q924Y0: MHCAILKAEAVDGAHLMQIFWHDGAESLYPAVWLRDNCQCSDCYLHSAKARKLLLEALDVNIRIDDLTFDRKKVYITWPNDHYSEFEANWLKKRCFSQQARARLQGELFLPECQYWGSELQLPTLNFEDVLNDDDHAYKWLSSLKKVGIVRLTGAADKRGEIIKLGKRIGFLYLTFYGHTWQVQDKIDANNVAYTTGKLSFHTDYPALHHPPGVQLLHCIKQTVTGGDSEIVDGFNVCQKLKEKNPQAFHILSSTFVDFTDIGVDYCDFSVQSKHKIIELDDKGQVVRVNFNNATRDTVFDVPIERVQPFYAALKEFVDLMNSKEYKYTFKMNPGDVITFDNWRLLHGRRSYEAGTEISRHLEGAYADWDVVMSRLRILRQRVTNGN
UniProt Q99J27: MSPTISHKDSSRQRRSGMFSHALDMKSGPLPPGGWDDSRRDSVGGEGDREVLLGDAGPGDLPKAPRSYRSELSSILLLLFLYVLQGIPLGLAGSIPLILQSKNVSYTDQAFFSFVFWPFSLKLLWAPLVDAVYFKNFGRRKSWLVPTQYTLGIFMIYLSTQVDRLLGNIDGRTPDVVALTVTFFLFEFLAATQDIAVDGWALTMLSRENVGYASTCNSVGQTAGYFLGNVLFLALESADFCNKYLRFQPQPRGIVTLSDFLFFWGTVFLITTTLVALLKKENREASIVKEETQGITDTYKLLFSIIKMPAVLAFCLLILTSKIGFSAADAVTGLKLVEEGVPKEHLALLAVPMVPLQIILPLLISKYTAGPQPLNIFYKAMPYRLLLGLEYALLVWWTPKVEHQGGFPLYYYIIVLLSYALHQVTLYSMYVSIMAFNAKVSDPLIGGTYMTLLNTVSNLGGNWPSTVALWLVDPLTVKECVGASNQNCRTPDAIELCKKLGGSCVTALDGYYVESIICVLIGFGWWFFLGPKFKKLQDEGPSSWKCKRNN
UniProt Q921C5, whole entry: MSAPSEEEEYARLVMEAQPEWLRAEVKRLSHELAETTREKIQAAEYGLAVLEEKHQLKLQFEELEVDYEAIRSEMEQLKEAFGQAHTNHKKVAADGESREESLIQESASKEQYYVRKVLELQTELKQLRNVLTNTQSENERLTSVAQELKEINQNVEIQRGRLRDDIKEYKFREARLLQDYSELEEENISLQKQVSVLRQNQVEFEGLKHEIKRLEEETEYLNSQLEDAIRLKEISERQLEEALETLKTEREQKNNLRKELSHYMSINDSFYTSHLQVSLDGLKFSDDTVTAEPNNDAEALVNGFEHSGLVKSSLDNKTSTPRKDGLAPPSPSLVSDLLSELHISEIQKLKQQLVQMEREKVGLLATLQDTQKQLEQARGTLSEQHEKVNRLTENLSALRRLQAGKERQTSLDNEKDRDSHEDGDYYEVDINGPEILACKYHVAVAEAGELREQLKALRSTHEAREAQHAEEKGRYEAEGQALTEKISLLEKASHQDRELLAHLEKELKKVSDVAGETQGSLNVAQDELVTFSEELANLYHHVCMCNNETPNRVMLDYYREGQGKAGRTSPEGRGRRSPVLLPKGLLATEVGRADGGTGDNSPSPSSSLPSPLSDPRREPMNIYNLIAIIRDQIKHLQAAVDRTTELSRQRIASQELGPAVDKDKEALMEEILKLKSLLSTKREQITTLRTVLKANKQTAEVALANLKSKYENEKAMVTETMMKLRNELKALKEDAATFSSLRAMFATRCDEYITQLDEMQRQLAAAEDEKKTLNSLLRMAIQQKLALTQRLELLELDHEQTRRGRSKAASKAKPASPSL
UniProt Q921K8: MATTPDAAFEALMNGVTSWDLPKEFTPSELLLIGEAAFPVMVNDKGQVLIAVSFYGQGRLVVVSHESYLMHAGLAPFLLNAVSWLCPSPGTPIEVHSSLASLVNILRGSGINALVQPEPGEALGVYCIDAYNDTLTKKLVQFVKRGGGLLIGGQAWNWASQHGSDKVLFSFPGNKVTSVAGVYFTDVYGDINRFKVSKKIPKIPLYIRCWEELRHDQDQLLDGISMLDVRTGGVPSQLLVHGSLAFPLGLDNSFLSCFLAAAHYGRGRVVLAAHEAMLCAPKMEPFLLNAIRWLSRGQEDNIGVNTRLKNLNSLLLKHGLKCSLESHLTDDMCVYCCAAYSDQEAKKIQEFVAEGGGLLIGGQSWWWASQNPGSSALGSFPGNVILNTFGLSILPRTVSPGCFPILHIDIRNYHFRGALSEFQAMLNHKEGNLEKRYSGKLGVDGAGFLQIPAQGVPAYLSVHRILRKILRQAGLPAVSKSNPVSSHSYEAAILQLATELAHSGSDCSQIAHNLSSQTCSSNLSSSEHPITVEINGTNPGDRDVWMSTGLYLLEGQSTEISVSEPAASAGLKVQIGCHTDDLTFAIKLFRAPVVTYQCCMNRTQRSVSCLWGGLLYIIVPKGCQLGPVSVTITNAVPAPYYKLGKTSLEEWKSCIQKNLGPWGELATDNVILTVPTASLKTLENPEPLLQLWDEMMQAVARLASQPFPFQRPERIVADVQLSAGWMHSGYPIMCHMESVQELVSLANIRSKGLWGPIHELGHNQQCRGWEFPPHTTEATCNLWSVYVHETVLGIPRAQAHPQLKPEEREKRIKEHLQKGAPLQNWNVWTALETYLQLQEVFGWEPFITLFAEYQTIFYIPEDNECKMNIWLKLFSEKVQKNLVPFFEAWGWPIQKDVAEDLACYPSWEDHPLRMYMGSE

Compound: CN[C@@H]1C[C@H]2O[C@@](C)([C@@H]1OC)n1c3ccccc3c3c4c(c5c6ccccc6n2c5c31)C(=O)NC4 [staurosporine]
Test: log2 fold change of tryptic peptide abundance, ligand vs vehicle (limited proteolysis) (log2 ratio); higher = more trypsin-susceptible (destabilized)
Conditions: ligand concentration: 20 uM; sample: mouse liver crude lysate; replicate design: treated separately

Work on “UniProt Q99J93 (peptide sequence: TTVINMPR, peptide start residue: 43)” yielded a log2 fold change of -0.0388.
“UniProt Q99KR7 (peptide sequence: HVVFGHVK, peptide start residue: 167)” gave a log2 fold change of 0.24.
In the case of “UniProt Q99J36 (peptide sequence: SQFLPAKR, peptide start residue: 20)”, the log2 fold change is reported as 0.0197.
With “UniProt Q924T2 (peptide sequence: GSEGSGTSPVPDKSHSP, peptide start residue: 275)” the log2 fold change was 0.102.
“UniProt Q99JW2 (peptide sequence: LQANPHLK, peptide start residue: 237)” showed a log2 fold change of -0.137.
“UniProt Q921X9 (peptide sequence: DVVHIDSEKDFRR, peptide start residue: 150)” was tested, and the log2 fold change was -0.447.
With “UniProt Q921B4 (peptide sequence: SGSTPVTHGSSIK, peptide start residue: 459)” the log2 fold change was -0.45.
For “UniProt Q99J31 (peptide sequence: QGPVDLTLK, peptide start residue: 311)”, the log2 fold change was 0.0782.
With “UniProt Q99J83 (peptide sequence: LFRPVAADGQLHTLGDLLR, peptide start residue: 202)” the log2 fold change was -0.213.
Target “UniProt Q99KR3 (peptide sequence: MAEHNLLLHLR, peptide start residue: 256)” has a log2 fold change of 0.104.
“UniProt Q924W7 (peptide sequence: SSPDPAVNPVPKPK, peptide start residue: 375)” gave a log2 fold change of -0.209.
“UniProt Q925N2 (peptide sequence: DRNQNELGHSQR, peptide start residue: 208)” showed a log2 fold change of -0.808.
With “UniProt Q923D4 (peptide sequence: YIGTGHADTTK, peptide start residue: 18)” the log2 fold change was -0.359.
“UniProt Q922R5 (peptide sequence: LNSVPSILR, peptide start residue: 658)” was tested, and the log2 fold change was -0.255.
Work on “UniProt Q99JN2 (peptide sequence: SLLHEQPR, peptide start residue: 596)” yielded a log2 fold change of -0.327.
With “UniProt Q924H7 (peptide sequence: YSDSTGHNK, peptide start residue: 69)” the log2 fold change was -0.8.
“UniProt Q99K28 (peptide sequence: ACFDCGAK, peptide start residue: 25)” was tested, and the log2 fold change was -0.329.
“UniProt Q924Y0 (peptide sequence: IDDLTFDRK, peptide start residue: 64)” gave a log2 fold change of 0.325.
With “UniProt Q99LG4 (peptide sequence: VSLQNLSMVLR, peptide start residue: 137)” the log2 fold change was 0.175.
“UniProt Q921G7 (peptide sequence: HRIPVPILPGLPMNNHGNYIVR, peptide start residue: 153)” was tested, and the log2 fold change was -0.105.
“UniProt Q99J27 (peptide sequence: DSVGGEGDREVLLGDAGPGDLPKAPR, peptide start residue: 41)” gave a log2 fold change of -0.372.
“UniProt Q920F6 (peptide sequence: TFTRIIR, peptide start residue: 93)” gave a log2 fold change of 0.0967.
“UniProt Q921C5 (peptide sequence: YHVAVAEAGELR, peptide start residue: 441)” showed a log2 fold change of 0.981.
For “UniProt Q99KU6 (peptide sequence: LVSLPITKK, peptide start residue: 106)”, the log2 fold change was 0.36.
Target “UniProt Q99J62 (peptide sequence: TSTILAAAR, peptide start residue: 85)” has a log2 fold change of 0.431.
For “UniProt Q922V4 (peptide sequence: HSVHTLVFR, peptide start residue: 8)”, the log2 fold change was 0.271.
With “UniProt Q99J23 (peptide sequence: GARPCWLISLQHR, peptide start residue: 27)” the log2 fold change was 0.795.
Work on “UniProt Q99K67 (peptide sequence: SSVVPVEGCPELPHK, peptide start residue: 334)” yielded a log2 fold change of -0.211.
“UniProt Q923T7 (peptide sequence: LYCQDDGR, peptide start residue: 138)” showed a log2 fold change of 0.238.
With “UniProt Q99J79 (peptide sequence: SPDVAVLLR, peptide start residue: 12)” the log2 fold change was 0.0441.
“UniProt Q921K8 (peptide sequence: GALSEFQAMLNHK, peptide start residue: 417)” gave a log2 fold change of -0.15.
